The values that follow come from patent US5270316A, “Condensed purine derivatives” (Kyowa Hakko Kogyo Co., Ltd., priority 1989, dated 1993).

The assay in a line: Diuretic activity (oral, urine collected for 6 hours). The note with it: Rattus norvegicus, 25 mg/kg oral, rats, relative value for control. In kind it is in vivo, rat (Wistar male rats). The protocol: Wistar male rats weighing 150 to 300 g were used after they were fasted for 18 hours. A test compound or saline (control) was orally administered to rats and urine was collected for 6 hours. The test was performed using 3 groups per the test compound, and each group consists of 3 animals. The urine was metered by a measuring cylinder and electrolytes (Na^+ and K^+) in the urine were assayed with a flame photometer (model […] manufactured by Hitachi Ltd.). Parameters in Table 3 are all expressed by relative value for control.

Where two headings read alike, the source gives them in different places.

For `NS(=O)(=O)c1cc(C(=O)O)c(NCc2ccco2)cc1Cl` [Furosemide, reference compound], the response vs control in vivo at 25 mg/kg reads like this: (read-out: Excretion of K+) 57%; (read-out: Excretion of Na+) 64%.
